Results are given in words; binding and its absence hold for the method and conditions named. Binding seen in cells or lysates may run through a third protein. Some entries that bind do so weakly or less than the wild type. For some assays here: Where a sequence is shown, tags or fusion partners need not be part of it. Values belong to the molecule of their own block, whether it stands above or below them.
What was measured:
Test in all cases: co-IP
[1] = molecular target: Flag-HDAC4 (human) (UniProt P56524)
[2] = molecular target: T1, Flag-GSDMD (Gasdermin D, full length) (human) (UniProt P57764)
T1 sequence: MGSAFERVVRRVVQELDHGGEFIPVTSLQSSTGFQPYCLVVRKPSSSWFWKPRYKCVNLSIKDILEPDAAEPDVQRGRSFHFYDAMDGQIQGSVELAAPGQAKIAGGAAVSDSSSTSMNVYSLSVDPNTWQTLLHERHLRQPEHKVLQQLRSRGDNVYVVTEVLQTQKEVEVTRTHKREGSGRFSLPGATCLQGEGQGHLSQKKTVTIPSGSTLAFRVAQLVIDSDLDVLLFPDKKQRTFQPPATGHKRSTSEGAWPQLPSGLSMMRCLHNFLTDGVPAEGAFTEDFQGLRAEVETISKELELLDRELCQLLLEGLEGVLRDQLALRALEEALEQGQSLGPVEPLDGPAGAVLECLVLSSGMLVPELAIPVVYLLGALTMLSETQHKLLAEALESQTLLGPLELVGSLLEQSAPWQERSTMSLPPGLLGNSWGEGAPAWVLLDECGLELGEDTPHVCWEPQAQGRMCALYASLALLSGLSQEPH

Sequences of proteins named here, by UniProt entry; tags and fusion partners are left off.
UniProt P56524: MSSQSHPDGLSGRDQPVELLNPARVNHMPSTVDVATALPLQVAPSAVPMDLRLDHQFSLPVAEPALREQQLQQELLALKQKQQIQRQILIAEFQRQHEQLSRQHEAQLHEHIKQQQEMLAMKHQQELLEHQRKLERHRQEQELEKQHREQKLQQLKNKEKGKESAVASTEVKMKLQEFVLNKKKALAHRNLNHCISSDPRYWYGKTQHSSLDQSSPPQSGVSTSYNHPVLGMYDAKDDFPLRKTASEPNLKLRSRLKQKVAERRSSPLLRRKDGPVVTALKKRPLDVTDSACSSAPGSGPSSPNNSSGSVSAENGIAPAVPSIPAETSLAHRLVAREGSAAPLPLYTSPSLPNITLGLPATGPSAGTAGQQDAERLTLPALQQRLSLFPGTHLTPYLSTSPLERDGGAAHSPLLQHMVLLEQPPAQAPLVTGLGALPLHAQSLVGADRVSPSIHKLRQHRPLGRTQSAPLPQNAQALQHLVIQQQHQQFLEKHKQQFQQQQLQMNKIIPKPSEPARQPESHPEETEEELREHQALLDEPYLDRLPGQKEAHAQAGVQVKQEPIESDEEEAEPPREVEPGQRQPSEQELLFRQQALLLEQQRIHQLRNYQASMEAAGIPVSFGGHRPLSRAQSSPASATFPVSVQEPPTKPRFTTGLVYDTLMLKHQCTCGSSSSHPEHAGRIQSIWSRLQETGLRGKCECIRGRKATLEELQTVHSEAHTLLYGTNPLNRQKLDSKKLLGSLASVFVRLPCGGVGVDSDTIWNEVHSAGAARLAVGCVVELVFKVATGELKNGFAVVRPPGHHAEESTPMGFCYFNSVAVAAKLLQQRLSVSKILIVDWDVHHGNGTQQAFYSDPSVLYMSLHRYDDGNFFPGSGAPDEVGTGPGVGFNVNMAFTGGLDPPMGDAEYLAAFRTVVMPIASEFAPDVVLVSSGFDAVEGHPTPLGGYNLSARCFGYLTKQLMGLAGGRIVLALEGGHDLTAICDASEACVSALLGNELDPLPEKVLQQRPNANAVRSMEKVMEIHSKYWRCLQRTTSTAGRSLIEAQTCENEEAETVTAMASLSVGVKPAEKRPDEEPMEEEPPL
UniProt P62136: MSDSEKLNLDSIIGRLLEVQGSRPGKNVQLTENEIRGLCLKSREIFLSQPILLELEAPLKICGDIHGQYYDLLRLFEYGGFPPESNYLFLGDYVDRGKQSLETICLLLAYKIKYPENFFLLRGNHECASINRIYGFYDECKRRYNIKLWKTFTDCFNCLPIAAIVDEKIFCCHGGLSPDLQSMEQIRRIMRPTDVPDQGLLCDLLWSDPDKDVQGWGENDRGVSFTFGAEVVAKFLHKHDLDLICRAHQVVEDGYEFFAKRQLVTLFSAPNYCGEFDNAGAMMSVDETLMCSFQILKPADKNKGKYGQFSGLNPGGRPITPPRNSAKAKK
UniProt P36873: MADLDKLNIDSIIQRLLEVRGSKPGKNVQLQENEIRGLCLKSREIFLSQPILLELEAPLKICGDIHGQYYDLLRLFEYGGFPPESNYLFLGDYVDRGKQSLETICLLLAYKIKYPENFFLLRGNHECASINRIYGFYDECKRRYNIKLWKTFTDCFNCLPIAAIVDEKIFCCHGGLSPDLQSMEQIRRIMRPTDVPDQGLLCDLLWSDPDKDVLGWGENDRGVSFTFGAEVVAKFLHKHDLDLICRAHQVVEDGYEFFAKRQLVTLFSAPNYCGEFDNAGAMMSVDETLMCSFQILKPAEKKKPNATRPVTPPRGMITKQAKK

[3] = molecular target: HDAC4, endogenous in THP-1 cells (human (endogenous in THP-1)) (UniProt P56524)

- binding [1]: binds
- binding [2]: binds
Molecule: HA-PP1α (Protein phosphatase 1 catalytic subunit alpha) (from UniProt P62136 1-330) (enzyme)

- binding [1]: binds
- binding [2]: binds
Molecule: HA-PP1γ (Protein phosphatase 1 catalytic subunit gamma) (from UniProt P36873 1-323) (enzyme)

- binding [3]: binds
B1: GSDMD, endogenous in THP-1 cells (protein, UniProt P57764 1-484)
chain: T1 sequence
